The other results are listed elsewhere or left out.
Legend:
SARS = SARS (UniProt P49591); assay: dose-dependent thermal stabilisation call (2D-TPP, DLPTP, 10% FDR) (binary (1 = stabilised)); higher = stabilised by the compound; conditions: system: HL-60 intact cells; concentration range 0.04-10 µM
SARS2 = target: T1, SARS2 (UniProt Q9NP81); assay: as above; conditions: system: HL-60 intact cells; concentration range 0.04-10 µM
T1 sequence (whole entry): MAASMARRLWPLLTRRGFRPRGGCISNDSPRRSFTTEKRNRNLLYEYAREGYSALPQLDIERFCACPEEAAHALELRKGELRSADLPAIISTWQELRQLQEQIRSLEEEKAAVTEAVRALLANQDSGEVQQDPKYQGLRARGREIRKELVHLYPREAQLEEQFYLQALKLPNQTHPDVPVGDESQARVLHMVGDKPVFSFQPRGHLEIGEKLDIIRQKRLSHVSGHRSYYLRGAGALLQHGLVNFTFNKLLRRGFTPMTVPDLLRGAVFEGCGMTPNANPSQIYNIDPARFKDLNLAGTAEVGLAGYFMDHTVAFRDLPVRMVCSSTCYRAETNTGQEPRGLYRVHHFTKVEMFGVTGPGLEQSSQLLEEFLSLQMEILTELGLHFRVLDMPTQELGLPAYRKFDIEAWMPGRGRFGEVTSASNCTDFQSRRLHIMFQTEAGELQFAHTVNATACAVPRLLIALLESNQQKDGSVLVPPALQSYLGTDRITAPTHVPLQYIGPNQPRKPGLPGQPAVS

Protein sequences, listed by entry. Tags and fused reporters are not part of them. Lines headed by an entry give the natural chain unless they say otherwise; changes in a name come on top.
UniProt P49591: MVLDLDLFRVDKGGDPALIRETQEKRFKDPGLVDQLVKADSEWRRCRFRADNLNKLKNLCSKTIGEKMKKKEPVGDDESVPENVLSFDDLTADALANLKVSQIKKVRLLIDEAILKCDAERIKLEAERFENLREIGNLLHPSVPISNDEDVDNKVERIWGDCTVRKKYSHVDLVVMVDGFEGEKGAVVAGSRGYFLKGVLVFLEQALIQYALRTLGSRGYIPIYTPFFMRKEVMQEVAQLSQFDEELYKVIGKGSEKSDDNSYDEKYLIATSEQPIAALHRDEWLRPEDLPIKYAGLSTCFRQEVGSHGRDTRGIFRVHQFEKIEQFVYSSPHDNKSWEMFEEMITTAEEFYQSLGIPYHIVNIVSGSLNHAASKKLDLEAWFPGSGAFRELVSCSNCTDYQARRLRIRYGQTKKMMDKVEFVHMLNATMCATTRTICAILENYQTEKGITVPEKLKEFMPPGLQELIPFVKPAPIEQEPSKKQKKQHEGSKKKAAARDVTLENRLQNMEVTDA

## COc1ccc(Cn2ccc3ccc(C(=O)NO)cc32)cc1
SARS
  dose-dependent thermal stabilisation call: inactive: 0
SARS2
  dose-dependent thermal stabilisation call: inactive: 0

Reference: the supplement of paper PMC7666118
